In PMC12581665:
Like-named read-outs stand apart in the source and are kept apart here. Results are given in words; binding and its absence hold for the method and conditions named. In cells and extracts the contact can be indirect. Some binding calls cover weakened binding; strength is not graded here. Sequences can lack the tags named with a protein.

Amino acid sequences for entries named in this document (tags omitted).
UniProt P15311: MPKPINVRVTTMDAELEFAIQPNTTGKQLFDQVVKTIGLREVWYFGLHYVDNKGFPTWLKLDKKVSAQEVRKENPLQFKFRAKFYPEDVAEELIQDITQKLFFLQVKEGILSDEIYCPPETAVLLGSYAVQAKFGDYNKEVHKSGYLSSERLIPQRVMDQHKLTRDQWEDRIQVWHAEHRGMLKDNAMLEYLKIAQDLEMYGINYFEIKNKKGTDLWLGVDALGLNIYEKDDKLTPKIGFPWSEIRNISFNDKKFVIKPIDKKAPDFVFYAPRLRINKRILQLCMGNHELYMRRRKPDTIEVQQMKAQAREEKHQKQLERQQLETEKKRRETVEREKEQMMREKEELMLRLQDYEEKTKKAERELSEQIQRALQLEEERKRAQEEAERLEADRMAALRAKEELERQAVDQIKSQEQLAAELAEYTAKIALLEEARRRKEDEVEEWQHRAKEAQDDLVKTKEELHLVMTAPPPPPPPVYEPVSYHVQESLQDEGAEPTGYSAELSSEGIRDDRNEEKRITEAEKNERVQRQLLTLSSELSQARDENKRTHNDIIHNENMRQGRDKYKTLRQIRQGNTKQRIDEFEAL

T1: Myc-tagged full-length CRB3A (Myc-CRB3A WT) (human) (UniProt Q9BUF7)
T1 sequence: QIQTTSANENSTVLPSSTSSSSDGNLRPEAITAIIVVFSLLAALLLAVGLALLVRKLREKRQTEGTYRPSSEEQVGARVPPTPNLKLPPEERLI


How the values were obtained:
[1] = biological target: T1, Myc-tagged full-length CRB3A (Myc-CRB3A WT) (human); test: co-IP; anti-Myc immunoprecipitation from lysates of SKCO-15 cells transfected with Myc-Crb3 WT or mutants; relaxation lysis buffer (10 mM HEPES, 10 mM NaCl, 3.5 mM MgCl2, 100 mM KCl, 1% octyl glucoside); 5 ug/mL antibody or control IgG overnight at 4°C; protein G Dynabeads; Western blotting for NF2, Ezrin, PALS1 and Myc-tag
[2] = biological target: T1, Myc-tagged full-length CRB3A (Myc-CRB3A WT) (human); test: as above; remark: listed apart in the source

Molecule	binding [1]	binding [2]
Ezrin, endogenous (from UniProt P15311 1-586)	no binding	
PALS1 (protein associated with Lin seven), endogenous (protein, UniProt Q8N3R9 1-675) MTTSHMNGHVTEESDSEVKNVDLASPEEHQKHREMAVDCPGDLGTRMMPIRRSAQLERIRQQQEDMRRRREEEGKKQELDLNSSMRLKKLAQIPPKTGIDNPMFDTEEGIVLESPHYAVKILEIEDLFSSLKHIQHTLVDSQSQEDISLLLQLVQNKDFQNAFKIHNAITVHMNKASPPFPLISNAQDLAQEVQTVLKPVHHKEGQELTALLNTPHIQALLLAHDKVAEQEMQLEPITDERVYESIGQYGGETVKIVRIEKARDIPLGATVRNEMDSVIISRIVKGGAAEKSGLLHEGDEVLEINGIEIRGKDVNEVFDLLSDMHGTLTFVLIPSQQIKPPPAKETVIHVKAHFDYDPSDDPYVPCRELGLSFQKGDILHVISQEDPNWWQAYREGDEDNQPLAGLVPGKSFQQQREAMKQTIEEDKEPEKSGKLWCAKKNKKKRKKVLYNANKNDDYDNEEILTYEEMSLYHQPANRKRPIILIGPQNCGQNELRQRLMNKEKDRFASAVPHTTRSRRDQEVAGRDYHFVSRQAFEADIAAGKFIEHGEFEKNLYGTSIDSVRQVINSGKICLLSLRTQSLKTLRNSDLKPYIIFIAPPSQERLRALLAKEGKNPKPEELREIIEKTREMEQNNGHYFDTAIVNSDLDKAYQELLRLINKLDTEPQWVPSTWLR		binds
